# Measurements from the supplement of paper PMC8728848.
# The list shows a part of the results.
# Legend:
# Assay in all cases: glycan array binding signal (z-score within array); higher = stronger binding
# Conditions in all cases: glycan notation: IUPAC condensed, linker removed
# [1] = biological target: Man(a1-2)Man(a1-3)[Man(a1-2)Man(a1-6)]Man(a1-6)[Man(a1-2)Man(a1-2)Man(a1-3)]Man
# In short: (§1)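 From the Consortium for Functional Glycomics database, 3228 arrays were curated, keeping only those whose protein sequence was available. Binding is given as a within-array Z-score averaged across arrays sharing a protein sequence and across linkers. Negative Z-scores can be read as non-binding.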
# [2] = biological target: Man(a1-2)Man(a1-3)[Man(a1-2)Man(a1-6)]Man(a1-6)[Man(a1-2)Man(a1-2)Man(a1-3)]Man(b1-4)GlcNAc(b1-4)GlcNAc
# In short: as §1
# [3] = biological target: Man(a1-2)Man(a1-3)[Man(a1-6)]Man(a1-6)[Man(a1-2)Man(a1-3)]Man(b1-4)GlcNAc(b1-4)GlcNAc
# In short: as §1
# [4] = biological target: Man(a1-2)Man(a1-6)[Man(a1-3)]Man(a1-6)[Man(a1-2)Man(a1-2)Man(a1-3)]Man
# In short: as §1
# [5] = biological target: Man(a1-2)Man(a1-6)[Man(a1-3)]Man(a1-6)[Man(a1-2)Man(a1-2)Man(a1-3)]Man(b1-4)GlcNAc(b1-4)GlcNAc
# In short: as §1
# Man(a1-3)[Man(a1-6)]Man = biological target: Man(a1-3)[Man(a1-6)]Man
# In short: as §1
# [6] = biological target: Man(a1-3)[Man(a1-6)]Man(a1-6)[Man(a1-2)Man(a1-3)]Man(b1-4)GlcNAc(b1-4)GlcNAc
# In short: as §1
# [7] = biological target: Man(a1-3)[Man(a1-6)]Man(a1-6)[Man(a1-3)]Man
# In short: as §1
# [8] = biological target: Man(a1-3)[Man(a1-6)]Man(a1-6)[Man(a1-3)]Man(b1-4)GlcNAc(b1-4)GlcNAc
# In short: as §1
# [9] = biological target: Man(a1-3)[Man(a1-6)]Man(b1-4)GlcNAc(b1-4)GlcNAc
# In short: as §1
# [10] = biological target: Man(a1-3)[Man(a1-6)]Man(b1-4)GlcNAc(b1-4)[Fuc(a1-6)]GlcNAc
# In short: as §1
# Man(a1-6)Man = biological target: Man(a1-6)Man
# In short: as §1
# Man(b1-4)GlcNAc = biological target: Man(b1-4)GlcNAc
# In short: as §1
# MurNAc(b1-4)GlcNAc = biological target: MurNAc(b1-4)GlcNAc
# In short: as §1
# Neu5Ac(a2-3)Gal = biological target: Neu5Ac(a2-3)Gal
# In short: as §1
# [11] = biological target: Neu5Ac(a2-3)Gal(b1-3)GalNAc
# In short: as §1
# [12] = biological target: Neu5Ac(a2-3)Gal(b1-3)GalNAc(b1-3)Gal(a1-4)Gal(b1-4)Glc
# In short: as §1
# [13] = biological target: Neu5Ac(a2-3)Gal(b1-3)GalNAc(b1-4)[Neu5Ac(a2-3)]Gal(b1-4)Glc
# In short: as §1
# [14] = biological target: Neu5Ac(a2-3)Gal(b1-3)GalNAc(b1-4)[Neu5Ac(a2-8)Neu5Ac(a2-3)]Gal(b1-4)Glc
# In short: as §1
# [15] = biological target: Neu5Ac(a2-3)Gal(b1-3)GalNAc6S
# In short: as §1
# [16] = biological target: Neu5Ac(a2-3)Gal(b1-3)GlcNAc
# In short: as §1
# [17] = biological target: Neu5Ac(a2-3)Gal(b1-3)GlcNAc(b1-2)Man
# In short: as §1
# [18] = biological target: Neu5Ac(a2-3)Gal(b1-3)GlcNAc(b1-2)Man(a1-3)[GlcNAc(b1-4)][Neu5Ac(a2-3)Gal(b1-3)GlcNAc(b1-2)Man(a1-6)]Man(b1-4)GlcNAc(b1-4)GlcNAc
# In short: as §1
# [19] = biological target: Neu5Ac(a2-3)Gal(b1-3)GlcNAc(b1-2)Man(a1-3)[Neu5Ac(a2-3)Gal(b1-3)GlcNAc(b1-2)Man(a1-6)]Man(b1-4)GlcNAc(b1-4)GlcNAc
# In short: as §1
# [20] = biological target: Neu5Ac(a2-3)Gal(b1-3)GlcNAc(b1-3)Gal(b1-3)GlcNAc
# In short: as §1
# [21] = biological target: Neu5Ac(a2-3)Gal(b1-3)GlcNAc(b1-3)Gal(b1-4)GlcNAc
# In short: as §1
# [22] = biological target: Neu5Ac(a2-3)Gal(b1-3)GlcNAc(b1-3)GalNAc
# In short: as §1
# [23] = biological target: Neu5Ac(a2-3)Gal(b1-3)GlcNAc(b1-4)Gal(b1-4)Glc
# In short: as §1
# [24] = biological target: Neu5Ac(a2-3)Gal(b1-3)GlcNAc(b1-6)GalNAc
# In short: as §1
# [25] = biological target: Neu5Ac(a2-3)Gal(b1-3)GlcNAc6S
# In short: as §1
# [26] = biological target: Neu5Ac(a2-3)Gal(b1-3)[Fuc(a1-4)]GlcNAc
# In short: as §1
# [27] = biological target: Neu5Ac(a2-3)Gal(b1-3)[Fuc(a1-4)]GlcNAc(b1-3)Gal(b1-3)[Fuc(a1-4)]GlcNAc
# In short: as §1
# [28] = biological target: Neu5Ac(a2-3)Gal(b1-3)[Fuc(a1-4)]GlcNAc(b1-3)Gal(b1-4)[Fuc(a1-3)]GlcNAc
# In short: as §1
# [29] = biological target: Neu5Ac(a2-3)Gal(b1-3)[GlcNAc(b1-6)]GalNAc
# In short: as §1
# [30] = biological target: Neu5Ac(a2-3)Gal(b1-3)[Neu5Ac(a2-6)]GalNAc
# In short: as §1
# [31] = biological target: Neu5Ac(a2-3)Gal(b1-3)[Neu5Ac(a2-6)]GlcNAc(b1-3)[Fuc(a1-3)[Gal(b1-4)]GlcNAc(b1-6)]Gal(b1-4)Glc
# In short: as §1
# [32] = biological target: Neu5Ac(a2-3)Gal(b1-3)]Neu5Ac(a2-3)Gal(b1-4)]GlcNAc
# In short: as §1
binder,measurement,setting,value
Gs78B-bfa-542-29-542 (Bacteroides fragilis) (protein) SEDINRNPLLPTKEDEKMDGVIYGAYLPNLEKSVIPIGTASESTEPVNRYQIGVNLAGDAWAGYMSPRDNKFNGSKNFTNYFMYENWVNYVYSFMVTDVYSPWMQIKRISQDEGTRNDEIYALAQIIKIAALHRTTDMFGPIPYSQVGKGSFKVAYDSQESVYRSFLKELEEAVQTLDDYSNKSKEVLPAFDIVYNGDVNKWMRFANSLMLRLAIRVRFADAGLAKEYAEKAVKHPAGLINSKELAAQMGKGAGLQMKNPLKVINEEYNDTRMGATIYSYLAGYNDARAAVYFVKNNGFKAVRCGIAKSGDAYNGFTRPNVHEDDPLYWMKASEVCFLKAEGALAGFDMGGSAGDFYNAGIRMSFSENGLDNSSAETYLKDSTRKPANYTDTSNGELSANAPSSITIRWENGATEEEKLERIITQKYLAIFPNGQEAWTEWRRTGYPRQIVVAENKTNSAVLIGNGYDLGGVRRLPYPRTEYEQNGENLHNAISQYLGGVDNAATKVWWDKKSK,glycan array binding signal (z-score),[1],-0.841
same,glycan array binding signal (z-score),[2],-0.64
same,glycan array binding signal (z-score),[3],-0.563
same,glycan array binding signal (z-score),[4],-0.844
same,glycan array binding signal (z-score),[5],-0.72
same,glycan array binding signal (z-score),Man(a1-3)[Man(a1-6)]Man,-0.752
same,glycan array binding signal (z-score),[6],3.49
same,glycan array binding signal (z-score),[7],-0.801
same,glycan array binding signal (z-score),[8],1.14
same,glycan array binding signal (z-score),[9],-0.84
same,glycan array binding signal (z-score),[10],-0.82
same,glycan array binding signal (z-score),Man(a1-6)Man,-0.431
same,glycan array binding signal (z-score),Man(b1-4)GlcNAc,-0.607
same,glycan array binding signal (z-score),MurNAc(b1-4)GlcNAc,-0.834
same,glycan array binding signal (z-score),Neu5Ac(a2-3)Gal,-0.842
same,glycan array binding signal (z-score),[11],-0.752
same,glycan array binding signal (z-score),[12],-0.826
same,glycan array binding signal (z-score),[13],-0.801
same,glycan array binding signal (z-score),[14],-0.628
same,glycan array binding signal (z-score),[15],-0.818
same,glycan array binding signal (z-score),[16],-0.067
same,glycan array binding signal (z-score),[17],1.22
same,glycan array binding signal (z-score),[18],-0.557
same,glycan array binding signal (z-score),[19],0.433
same,glycan array binding signal (z-score),[20],-0.818
same,glycan array binding signal (z-score),[21],-0.836
same,glycan array binding signal (z-score),[22],-0.663
same,glycan array binding signal (z-score),[23],-0.459
same,glycan array binding signal (z-score),[24],0.6
same,glycan array binding signal (z-score),[25],-0.829
same,glycan array binding signal (z-score),[26],-0.793
same,glycan array binding signal (z-score),[27],-0.5
same,glycan array binding signal (z-score),[28],-0.537
same,glycan array binding signal (z-score),[29],-0.829
same,glycan array binding signal (z-score),[30],-0.769
same,glycan array binding signal (z-score),[31],-0.712
same,glycan array binding signal (z-score),[32],-0.814

# Copied from the entries so far for reference:
binder,measurement,setting,value
Gs78B-bfa-542-29-542 (Bacteroides fragilis) (protein) SEDINRNPLLPTKEDEKMDGVIYGAYLPNLEKSVIPIGTASESTEPVNRYQIGVNLAGDAWAGYMSPRDNKFNGSKNFTNYFMYENWVNYVYSFMVTDVYSPWMQIKRISQDEGTRNDEIYALAQIIKIAALHRTTDMFGPIPYSQVGKGSFKVAYDSQESVYRSFLKELEEAVQTLDDYSNKSKEVLPAFDIVYNGDVNKWMRFANSLMLRLAIRVRFADAGLAKEYAEKAVKHPAGLINSKELAAQMGKGAGLQMKNPLKVINEEYNDTRMGATIYSYLAGYNDARAAVYFVKNNGFKAVRCGIAKSGDAYNGFTRPNVHEDDPLYWMKASEVCFLKAEGALAGFDMGGSAGDFYNAGIRMSFSENGLDNSSAETYLKDSTRKPANYTDTSNGELSANAPSSITIRWENGATEEEKLERIITQKYLAIFPNGQEAWTEWRRTGYPRQIVVAENKTNSAVLIGNGYDLGGVRRLPYPRTEYEQNGENLHNAISQYLGGVDNAATKVWWDKKSK,glycan array binding signal (z-score),[5],-0.72
same,glycan array binding signal (z-score),Man(a1-3)[Man(a1-6)]Man,-0.752
same,glycan array binding signal (z-score),[6],3.49
